PubChem BioAssay AID1259308 | NCATS, 2017
This is a random part of about 59,000 reagents tested. In the full data, about 1,510 (2.6%) were called active. 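Calls use total luciferase alone and ignore viability, so some active siRNAs may act by altering cell number.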 The numbers tell different reagents against one gene apart. No sequences are given here.

Screen: 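Knock-downs that increase output of a recombinant reporter protein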 (primary screen)
System: human HEK293 embryonic kidney cells stably expressing firefly luciferase (HEK-CMV-Luc2-Hygro)
Reagents: single siRNA against human genes, 0.8 pmol siRNA per well
Duration: 72 h
Read-out: 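Luciferase light (ONE-Glo) measured on one replicate plate set and viability (CellTiter-Glo) on the other, scaled to a negative control siRNA, with robust z-scores and luciferase per cell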
Reading the numbers: total luciferase, z-score and total luciferase, % of control: higher = more reporter protein produced; luciferase per cell, z-score: higher = more reporter output per viable cell; viable cells, % of control: higher = more viable cells
Rule for the call: 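Active when the median/MAD z-score for overall luciferase is greater than 3; a gene was taken forward for validation with new siRNAs if at least two of its three siRNAs passed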
Meaning of the calls: active = raised luciferase; inactive = no rise

gene knocked down	reagent no.	total luciferase, z-score	total luciferase, % of control	luciferase per cell, z-score	viable cells, % of control	Outcome
GOLT1B (golgi transport 1B)	1	-0.324	75.4	0.00439	84.2	inactive
GOLT1B (golgi transport 1B)	2	1.34	108	1.74	76.7	inactive
GOLT1B (golgi transport 1B)	3	-0.262	76.7	-0.932	110	inactive
DOK4 (docking protein 4)	1	1.32	108	0.671	101	inactive
DOK4 (docking protein 4)	2	0.469	91.2	-0.256	109	inactive
DOK4 (docking protein 4)	3	-1.05	60.9	-1.38	97.8	inactive
DPH2 (diphthamide biosynthesis 2)	1	-0.604	69.9	-1.26	109	inactive
DPH2 (diphthamide biosynthesis 2)	2	-0.234	77.2	-0.691	104	inactive
DPH2 (diphthamide biosynthesis 2)	3	2.63	134	2.09	86.5	inactive
METTL26 (methyltransferase like 26)	1	0.848	98.8	1.07	83.3	inactive
METTL26 (methyltransferase like 26)	2	0.266	87.2	-0.148	101	inactive
METTL26 (methyltransferase like 26)	3	-0.983	62.3	0.429	62.2	inactive
REXO1L1P (REXO1 like 1, pseudogene)	1	-0.83	65.4	-1.09	97.4	inactive
REXO1L1P (REXO1 like 1, pseudogene)	2	2.17	125	1.83	86.2	inactive
REXO1L1P (REXO1 like 1, pseudogene)	3	1.98	121	1.08	102	inactive
CCR9 (C-C motif chemokine receptor 9)	1	0.727	96.3	1.9	65.3	inactive
CCR9 (C-C motif chemokine receptor 9)	2	0.662	95	1.67	68.4	inactive
CCR9 (C-C motif chemokine receptor 9)	3	-0.0793	80.3	-0.2	94.6	inactive
PLGRKT (plasminogen receptor with a C-terminal lysine)	1	0.817	98.1	0.859	87.5	inactive
PLGRKT (plasminogen receptor with a C-terminal lysine)	2	-0.0678	80.5	0.00302	89.9	inactive
PLGRKT (plasminogen receptor with a C-terminal lysine)	3	-1.14	59.1	-1.1	88.3	inactive
ALOX15 (arachidonate 15-lipoxygenase)	1	-1.17	58.6	-1.66	101	inactive
ALOX15 (arachidonate 15-lipoxygenase)	2	0.682	95.5	0.296	98.7	inactive
ALOX15 (arachidonate 15-lipoxygenase)	3	0.266	87.2	-0.0865	99.7	inactive
C17orf75 (chromosome 17 open reading frame 75)	1	-0.217	77.6	0.0972	84.5	inactive
C17orf75 (chromosome 17 open reading frame 75)	2	-1.18	58.5	-1	85.2	inactive
C17orf75 (chromosome 17 open reading frame 75)	3	-0.721	67.5	-0.525	86.7	inactive
CPNE5 (copine 5)	1	0.679	95.4	0.593	91.2	inactive
CPNE5 (copine 5)	2	-0.632	69.3	-1.14	104	inactive
CPNE5 (copine 5)	3	0.479	91.4	-0.472	116	inactive
MPZL2 (myelin protein zero like 2)	1	1.83	118	1.79	82.5	inactive
MPZL2 (myelin protein zero like 2)	2	0.0579	83	0.14	89.4	inactive
MPZL2 (myelin protein zero like 2)	3	-0.3	75.9	-0.823	105	inactive
CCDC97 (coiled-coil domain containing 97)	1	0.601	93.8	0.102	102	inactive
CCDC97 (coiled-coil domain containing 97)	2	1.11	104	0.743	95.5	inactive
CCDC97 (coiled-coil domain containing 97)	3	0.935	100	-0.0505	114	inactive
SMG7-AS1 (SMG7 antisense RNA 1)	1	-0.179	78.3	-0.675	105	inactive
SMG7-AS1 (SMG7 antisense RNA 1)	2	0.26	87.1	1.49	65.7	inactive
SMG7-AS1 (SMG7 antisense RNA 1)	3	-0.0973	80	0.998	68.7	inactive
MACO1 (macoilin 1)	1	-0.122	79.5	-0.295	96	inactive
MACO1 (macoilin 1)	2	0.526	92.4	0.458	91.5	inactive
MACO1 (macoilin 1)	3	0.351	88.9	-0.0587	101	inactive
CCDC86 (coiled-coil domain containing 86)	1	-1.36	54.7	-1.33	86.9	inactive
CCDC86 (coiled-coil domain containing 86)	2	-0.0741	80.4	-0.757	110	inactive
CCDC86 (coiled-coil domain containing 86)	3	-0.766	66.7	0.116	72.3	inactive
CERNA2 (competing endogenous lncRNA 2 for microRNA let-7b)	1	0.549	92.8	0.0586	102	inactive
CERNA2 (competing endogenous lncRNA 2 for microRNA let-7b)	2	0.156	85	0.186	90.4	inactive
CERNA2 (competing endogenous lncRNA 2 for microRNA let-7b)	3	-0.188	78.1	1.11	65.2	inactive
OGFR (opioid growth factor receptor)	1	-2.63	29.6	-2.63	66.1	inactive
OGFR (opioid growth factor receptor)	2	0.0412	82.7	-0.272	99.3	inactive
OGFR (opioid growth factor receptor)	3	-2.69	28.5	-2.77	65.9	inactive
TMEM120A (transmembrane protein 120A)	1	-0.586	70.2	-0.811	97.1	inactive
TMEM120A (transmembrane protein 120A)	2	-0.0543	80.8	-0.241	96.2	inactive
TMEM120A (transmembrane protein 120A)	3	-0.149	78.9	-0.432	98.8	inactive
AFDN-DT (AFDN divergent transcript)	1	-2.12	39.7	1.61	29.1	inactive
AFDN-DT (AFDN divergent transcript)	2	-0.669	68.6	0.478	67.6	inactive
AFDN-DT (AFDN divergent transcript)	3	0.79	97.6	-0.0167	110	inactive
CEP85L (centrosomal protein 85L)	1	-0.318	75.6	1.24	60.9	inactive
CEP85L (centrosomal protein 85L)	2	0.734	96.5	0.461	95.5	inactive
CEP85L (centrosomal protein 85L)	3	-1.7	48	-2.27	97.5	inactive
RYR1 (ryanodine receptor 1)	1	-0.069	80.5	0.0124	89.7	inactive
RYR1 (ryanodine receptor 1)	2	-0.913	63.7	-0.655	84.6	inactive
RYR1 (ryanodine receptor 1)	3	-1.66	49	-2.28	99.8	inactive
EGF (epidermal growth factor)	1	-1	61.9	-1.47	102	inactive
EGF (epidermal growth factor)	2	0.384	89.5	-0.0681	102	inactive
EGF (epidermal growth factor)	3	0.0587	83.1	-0.388	103	inactive
AXIN1 (axin 1)	1	-0.375	74.4	-0.167	86.9	inactive
AXIN1 (axin 1)	2	2.3	128	1.66	92	inactive
AXIN1 (axin 1)	3	-2.37	34.7	-2.42	73.4	inactive
SLC52A3	1	-0.988	62.2	-0.506	79.4	inactive
SLC52A3	2	-1.97	42.8	-2.06	82.3	inactive
SLC52A3	3	-0.398	74	-0.472	93.6	inactive
LIMA1 (LIM domain and actin binding 1)	1	1.17	105	0.59	101	inactive
LIMA1 (LIM domain and actin binding 1)	2	-1.26	56.8	-0.732	76.9	inactive
LIMA1 (LIM domain and actin binding 1)	3	0.354	88.9	-0.24	106	inactive

Sorted by “viable cells, % of control” (low to high): 11 of the entries above.
gene knocked down	reagent no.	total luciferase, z-score	total luciferase, % of control	luciferase per cell, z-score	viable cells, % of control	Outcome
AXIN1 (axin 1)	3	-2.37	34.7	-2.42	73.4	inactive
LIMA1 (LIM domain and actin binding 1)	2	-1.26	56.8	-0.732	76.9	inactive
SLC52A3	1	-0.988	62.2	-0.506	79.4	inactive
SLC52A3	2	-1.97	42.8	-2.06	82.3	inactive
AXIN1 (axin 1)	1	-0.375	74.4	-0.167	86.9	inactive
AXIN1 (axin 1)	2	2.3	128	1.66	92	inactive
SLC52A3	3	-0.398	74	-0.472	93.6	inactive
LIMA1 (LIM domain and actin binding 1)	1	1.17	105	0.59	101	inactive
EGF (epidermal growth factor)	2	0.384	89.5	-0.0681	102	inactive
EGF (epidermal growth factor)	3	0.0587	83.1	-0.388	103	inactive
LIMA1 (LIM domain and actin binding 1)	3	0.354	88.9	-0.24	106	inactive
